Experimental data: PubChem BioAssay AID248 (DTP/NCI, 2004)
The list shows only some results of the screen, not a fair sample: it is rich in T/C values a quarter to a half above the control, in often repeated tests (any T/C) and in doses without a T/C. Further doses and runs are listed elsewhere. T/C is the treated group as % of the vehicle group. Some entries give survivors of the animals treated and no T/C: the source holds a T/C of zero for them, seemingly a mark for toxic or unscored doses. Some doses without a T/C left all or most animals alive at the check, yet need not have been tolerated: survival well below the control is almost never listed, so the zero probably covers shortened survival too. Survivors were counted at the toxicity check, usually on the fifth day, unless a day is given; later deaths do not show. Schedule codes are those of the source, read here as Q, the interval in days (D) or hours (H), X, the number of doses. Some schedule codes hold Z or #, which are not explained here. Some entries were tested several times; the values are given in rising order. For survival time, this PubChem deposit counts one and a half times the control or more as active, and values a quarter to a half above the control carry no call in these data; other NCI protocols may use other cut-offs. Some T/C values carry the count of animals alive at the toxicity check (mostly the fifth day); without a count, all were alive then.

Tested on: L1210 leukemia ip in BDF1 mice, survival T/C
Experiment: NCI In Vivo Anticancer Drug Screen. Data for tumor model L1210 Leukemia (intraperitoneal) in B6D2F1 (BDF1) mice
Conditions: T/C endpoint: mean survival time, higher T/C = longer survival
[1] = dose: 200.0 mg/kg/injection, schedule: Q01DX009 (ip), vehicle: Klucel (hydroxypropylcellulose) (HPC)
[2] = dose: 400.0 mg/kg/injection, schedule: Q04DX002 (ip), vehicle: Klucel (hydroxypropylcellulose) (HPC)
[3] = dose: 16.0 mg/kg/injection, schedule: Q04DX003 (ip), vehicle: saline
[4] = dose: 32.0 mg/kg/injection, schedule: Q04DX003 (ip), vehicle: saline
[5] = dose: 200.0 mg/kg/injection, schedule: Q04DX003 (ip), vehicle: saline with Tween-80
[6] = dose: 400.0 mg/kg/injection, schedule: Q04DX003 (ip), vehicle: saline with Tween-80
[7] = dose: 400.0 mg/kg/injection, schedule: Q04DX003 (ip), vehicle: saline
[8] = dose: 150.0 mg/kg/injection, schedule: Q01DX001 (ip), vehicle: saline
[9] = dose: 75.0 mg/kg/injection, schedule: Q01DX009 (ip), vehicle: saline

**Q.** How did the survivor count [1] turn out when `NC(N)=NC(N)=Nc1ccccc1Br` was run?
**A.** 2 of 6

**Q.** What about the survivor count [2] of the same compound?
**A.** 0 of 3

**Q.** And the survivor count (dose: 400.0 mg/kg/injection, schedule: Q04DX003 (ip), vehicle: Klucel (hydroxypropylcellulose) (HPC))?
**A.** 0 of 6

**Q.** `O=C1NC(=S)S/C1=C\c1ccc([N+](=O)[O-])s1` was tested. Which survivor count [2] did it give?
**A.** 0 of 3

**Q.** Which survivor count [3] does the source give for `c1ccc([P+](CCC[P+](c2ccccc2)(c2ccccc2)c2ccccc2)(c2ccccc2)c2ccccc2)cc1` here?
**A.** 3 of 6

**Q.** What about the survivor count [4] of the same compound?
**A.** 0 of 6

**Q.** Which survivor count (dose: 8.0 mg/kg/injection, schedule: Q04DX003 (ip), vehicle: saline) does the source give for `CCC[CH2][Sn]([Cl])([CH2]CCC)[CH2]CCC` here?
**A.** 2 of 6

**Q.** And the survivor count [3]?
**A.** 2 of 6

**Q.** And the survivor count [4]?
**A.** 1 of 6

**Q.** `CCCCC(C)(C)COc1nc(OCC(C)(C)CCCC)nc(OCC(C)(C)CCCC)n1` was tested. Which survivor count (dose: 160.0 mg/kg/injection, schedule: Q04DX002 (ip), vehicle: saline with Tween-80) did it give?
**A.** 3 of 3

**Q.** And the survivor count [5]?
**A.** 6 of 6

**Q.** `Nc1ccc2cc(S(=O)(=O)O)cc(S(=O)(=O)O)c2c1` was tested. Which survivor count (dose: 400.0 mg/kg/injection, schedule: Q04DX002 (ip), vehicle: saline) did it give?
**A.** 0 of 3

**Q.** With `Cc1ccc(NC(=O)Nc2ccccc2C)c(C)c1` as the compound, how does the survivor count (dose: 400.0 mg/kg/injection, schedule: Q01DX009 (ip), vehicle: Klucel (hydroxypropylcellulose) (HPC)) read?
**A.** 6 of 6

**Q.** `Cc1cc(=S)cc(C)o1` was tested. Which survivor count (dose: 400.0 mg/kg/injection, schedule: Q04DX002 (ip), vehicle: gum acacia) did it give?
**A.** 1 of 3

**Q.** Which survivor count (dose: 100.0 mg/kg/injection, schedule: Q04DX003 (ip), vehicle: saline with Tween-80) does the source give for `COc1ccc(CC(=O)NCCc2ccccc2)cc1OC` here?
**A.** 3 of 6

**Q.** What about the survivor count (dose: 200.0 mg/kg/injection, schedule: Q01DX009 (ip), vehicle: saline with Tween-80) of the same compound?
**A.** 0 of 6

**Q.** What about the survivor count [5] of the same compound?
**A.** 1 of 6

**Q.** What about the survivor count [6] of the same compound?
**A.** 0 of 6

**Q.** How did the survivor count [7] turn out when `O=C(O)c1ccc(Br)cc1` was run?
**A.** 1 of 6

**Q.** Which T/C (dose: 100.0 mg/kg/injection, schedule: Q01DX009 (ip), vehicle: Klucel (hydroxypropylcellulose) (HPC)) does the source give for `CN(C)N=Nc1cn[nH]c1C(N)=O` here?
**A.** 104 [5 of 6 alive], 120 [5 of 6 alive], 136 [5 of 6 alive], 142 % of control

**Q.** And the T/C [1]?
**A.** 125 % of control

**Q.** And the T/C (dose: 200.0 mg/kg/injection, schedule: Q04DX003 (ip), vehicle: Klucel (hydroxypropylcellulose) (HPC))?
**A.** 130 % of control

**Q.** And the survivor count (dose: 400.0 mg/kg/injection, schedule: Q01DX009 (ip), vehicle: saline)?
**A.** 5 of 6

**Q.** And the T/C [7]?
**A.** 135 % of control

**Q.** What about the survivor count (dose: 600.0 mg/kg/injection, schedule: Q01DX009 (ip), vehicle: saline) of the same compound?
**A.** 0 of 6

**Q.** For `OC(CNc1ccccc1)CN1CCCCC1` (configuration not stated), which survivor count (dose: 200.0 mg/kg/injection, schedule: Q04DX003 (ip), vehicle: saline) is on record?
**A.** 3 of 6

**Q.** And the survivor count [7]?
**A.** 0 of 6

**Q.** Which results are given for `Oc1cccc2oc(=S)[nH]c12`?
**A.** survivor count [5]: 3 of 3; survivor count [6]: 0 of 3 and 1 of 3

**Q.** Which survivor count (dose: 200.0 mg/kg/injection, schedule: Q01DX001 (ip), vehicle: Klucel (hydroxypropylcellulose) (HPC)) does the source give for `Cc1nc(N)[nH]c(=O)c1NC(=O)CBr` here?
**A.** 0 of 3

**Q.** And the survivor count (dose: 400.0 mg/kg/injection, schedule: Q01DX001 (ip), vehicle: Klucel (hydroxypropylcellulose) (HPC))?
**A.** 0 of 3

**Q.** `CN(C)N=C(c1ccccc1)c1ccccc1` was tested. Which survivor count [1] did it give?
**A.** 1 of 6

**Q.** Which survivor count [8] does the source give for `O=[N+]([O-])c1ccc(/C=C2\c3ccccc3-c3nc4ccccc4nc32)cc1` here?
**A.** 6 of 6

**Q.** How did the survivor count (dose: 240.0 mg/kg/injection, schedule: Q01DX Z (ip), vehicle: carboxymethylcellulose (CMC)) turn out when `NC(N)=N/N=C/c1ccc(F)cc1` was run?
**A.** 3 of 6

**Q.** What about the survivor count (dose: 480.0 mg/kg/injection, schedule: Q01DX Z (ip), vehicle: carboxymethylcellulose (CMC)) of the same compound?
**A.** 0 of 6

**Q.** Which survivor count (dose: 50.0 mg/kg/injection, schedule: Q01DX001 (ip), vehicle: propolene glycol) does the source give for `O=C=NCCCl` here?
**A.** 2 of 6

**Q.** What about the survivor count (dose: 75.0 mg/kg/injection, schedule: Q01DX001 (ip), vehicle: propolene glycol) of the same compound?
**A.** 0 of 6

**Q.** And the survivor count (dose: 100.0 mg/kg/injection, schedule: Q01DX001 (ip), vehicle: propolene glycol)?
**A.** 0 of 6

**Q.** What about the survivor count (dose: 150.0 mg/kg/injection, schedule: Q01DX001 (ip), vehicle: propolene glycol) of the same compound?
**A.** 0 of 6

**Q.** What about the survivor count (dose: 200.0 mg/kg/injection, schedule: Q01DX001 (ip), vehicle: propolene glycol) of the same compound?
**A.** 0 of 6

**Q.** What about the survivor count (dose: 200.0 mg/kg/injection, schedule: Q04DX003 (sc), vehicle: olive oil, sesame oil, peanut oil) of the same compound?
**A.** 2 of 6

**Q.** What about the survivor count (dose: 400.0 mg/kg/injection, schedule: Q04DX003 (sc), vehicle: olive oil, sesame oil, peanut oil) of the same compound?
**A.** 0 of 6

**Q.** And the survivor count (dose: 500.0 mg/kg/injection, schedule: Q01DX001 (ip), vehicle: propolene glycol)?
**A.** 0 of 6

**Q.** What about the survivor count (dose: 1000.0 mg/kg/injection, schedule: Q01DX001 (ip), vehicle: propolene glycol) of the same compound?
**A.** 0 of 6

**Q.** And the survivor count (dose: 1500.0 mg/kg/injection, schedule: Q01DX001 (ip), vehicle: propolene glycol)?
**A.** 0 of 6

**Q.** How did the survivor count [6] turn out when `[Se]c1ccnc([Se])n1` was run?
**A.** 4 of 6

**Q.** Which T/C (dose: 1.2 mg/kg/injection, schedule: Q01DX Z (ip), vehicle: methylcellulose (MC)) does the source give for `CC1CN1c1cc(O)c(N2CC2C)cc1O` (configuration not stated) here?
**A.** 139 % of control

**Q.** What about the T/C (dose: 2.7 mg/kg/injection, schedule: Q01DX Z (ip), vehicle: carboxymethylcellulose (CMC)) of the same compound?
**A.** 129 % of control

**Q.** What about the T/C (dose: 2.7 mg/kg/injection, schedule: Q01DX Z (ip), vehicle: methylcellulose (MC)) of the same compound?
**A.** 128 and 145 % of control

**Q.** What about the survivor count (dose: 6.0 mg/kg/injection, schedule: Q01DX Z (ip), vehicle: methylcellulose (MC)) of the same compound?
**A.** 0 of 6

**Q.** What about the survivor count (dose: 9.0 mg/kg/injection, schedule: Q01DX Z (ip), vehicle: carboxymethylcellulose (CMC)) of the same compound?
**A.** 5 of 6

**Q.** And the survivor count (dose: 9.0 mg/kg/injection, schedule: Q01DX Z (ip), vehicle: methylcellulose (MC))?
**A.** 5 of 6

**Q.** And the survivor count (dose: 13.5 mg/kg/injection, schedule: Q01DX Z (ip), vehicle: carboxymethylcellulose (CMC))?
**A.** 0 of 6

**Q.** And the survivor count (dose: 13.5 mg/kg/injection, schedule: Q01DX Z (ip), vehicle: methylcellulose (MC))?
**A.** 2 of 6

**Q.** What about the survivor count (dose: 20.0 mg/kg/injection, schedule: Q01DX Z (ip), vehicle: carboxymethylcellulose (CMC)) of the same compound?
**A.** 0 of 6

**Q.** And the survivor count (dose: 20.0 mg/kg/injection, schedule: Q01DX Z (ip), vehicle: methylcellulose (MC))?
**A.** 0 of 6

**Q.** What about the survivor count (dose: 40.0 mg/kg/injection, schedule: Q01DX009 (ip), vehicle: saline) of the same compound?
**A.** 0 of 6

**Q.** And the survivor count (dose: 75.0 mg/kg/injection, schedule: Q01DX001 (ip), vehicle: saline)?
**A.** 2 of 6

**Q.** And the survivor count [8]?
**A.** 0 of 6

**Q.** And the survivor count (dose: 300.0 mg/kg/injection, schedule: Q01DX001 (ip), vehicle: saline)?
**A.** 0 of 6

**Q.** `O=S1(=O)/C(=C\C2CCCCC2)c2c1c(-c1ccccc1)c1ccccc1c2-c1ccccc1` was tested. Which survivor count (dose: 100.0 mg/kg/injection, schedule: Q01DX001 (ip), vehicle: carboxymethylcellulose (CMC)) did it give?
**A.** 4 of 4

**Q.** Which results are given for `CN(C)CCCN1c2ccccc2Sc2ccccc21`?
**A.** T/C [9]: 125 % of control [5 of 6 alive]; survivor count [9]: 1 of 6; survivor count [8]: 2 of 6; survivor count (dose: 150.0 mg/kg/injection, schedule: Q01DX009 (ip), vehicle: saline): 0 of 6; survivor count (dose: 150.0 mg/kg/injection, schedule: Q04DX003 (ip), vehicle: saline): 2 of 4; survivor count (dose: 300.0 mg/kg/injection, schedule: Q04DX003 (ip), vehicle: saline): 0 of 4
